Results are given in words; binding and its absence hold for the method and conditions named. In cells and extracts the contact can be indirect. Binding can be weak; no strength is given.
Molecular target: hemolysin-coregulated protein 1 (Hcp1), His-tagged (E. coli K1 RS218)
Assay: co-IP; HBMEC cells treated with His-tagged Hcp1, lysed (1% NP-40, 150 mM NaCl); precipitated with anti-His antibody on Protein A beads (IgG control); Western blot with antibodies to the candidates; only the target purified

B1: Rho GTPase activating protein 24 (ARHGAP24) (protein, UniProt Q8N264 1-748)
chain: MEENNDSTENPQQGQGRQNAIKCGWLRKQGGFVKTWHTRWFVLKGDQLYYFKDEDETKPLGTIFLPGNKVSEHPCNEENPGKFLFEVVPGGDRDRMTANHESYLLMASTQNDMEDWVKSIRRVIWGPFGGGIFGQKLEDTVRYEKRYGNRLAPMLVEQCVDFIRQRGLKEEGLFRLPGQANLVKELQDAFDCGEKPSFDSNTDVHTVASLLKLYLRELPEPVIPYAKYEDFLSCAKLLSKEEEAGVKELAKQVKSLPVVNYNLLKYICRFLDEVQSYSGVNKMSVQNLATVFGPNILRPKVEDPLTIMEGTVVVQQLMSVMISKHDCLFPKDAELQSKPQDGVSNNNEIQKKATMGQLQNKENNNTKDSPSRQCSWDKSESPQRSSMNNGSPTALSGSKTNSPKNSVHKLDVSRSPPLMVKKNPAFNKGSGIVTNGSFSSSNAEGLEKTQTTPNGSLQARRSSSLKVSGTKMGTHSVQNGTVRMGILNSDTLGNPTNVRNMSWLPNGYVTLRDNKQKEQAGELGQHNRLSTYDNVHQQFSMMNLDDKQSIDSATWSTSSCEISLPENSNSCRSSTTTCPEQDFFGGNFEDPVLDGPPQDDLSHPRDYESKSDHRSVGGRSSRATSSSDNSETFVGNSSSNHSALHSLVSSLKQEMTKQKIEYESRIKSLEQRNLTLETEMMSLHDELDQERKKFTMIEIKMRNAERAKEDAEKRNDMLQKEMEQFFSTFGELTVEPRRTERGNTIWIQ
  binding: binds

Reference: paper PMC5395654
